About 6,100 (1.1%) of roughly 580,000 compounds were called active. Inconclusive means that the source gave no clear call. Such entries were picked first, then a sample of the others. Calls follow the shape of the dose curve; as a rule, active = well fitted inhibition curve with a large enough effect; inconclusive = small, poorly fitted or top-dose-only effect, or another doubt; inactive = no such curve, though single readings can be large or run the other way. Potencies of inconclusive entries are doubtful fits and often do not repeat.
The compounds below were run against Polyunsaturated fatty acid lipoxygenase ALOX12 (Homo sapiens) (UniProt P18054) (assay: Primary qHTS assay for inhibitors of human arachidonate 12S-lipoxygenase (ALOX12): Round 2). Conditions: purified 12hLO, xylenol orange hydroperoxide absorbance; activity change, negative = inhibition: at 108 µM (top of the series) unless noted.
Procedure, shortened: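 Purified human 12hLO at 150 nM in 25 mM Hepes, 0.01% Triton X-100, pH 7.0, preincubated 15 min at room temperature with compound. Reaction started with 40 uM arachidonic acid, 30 min at room temperature. Hydroperoxide measured by Fe-xylenol orange, 573/405 nm absorbance ratio.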
% is scaled to controls: 0 for no effect and ±100 for the full control effect; potency is read from the fitted curve at half-maximal effect.

Chains of the proteins cited; added tags and fusions are not shown.
UniProt P18054, whole entry, looked up: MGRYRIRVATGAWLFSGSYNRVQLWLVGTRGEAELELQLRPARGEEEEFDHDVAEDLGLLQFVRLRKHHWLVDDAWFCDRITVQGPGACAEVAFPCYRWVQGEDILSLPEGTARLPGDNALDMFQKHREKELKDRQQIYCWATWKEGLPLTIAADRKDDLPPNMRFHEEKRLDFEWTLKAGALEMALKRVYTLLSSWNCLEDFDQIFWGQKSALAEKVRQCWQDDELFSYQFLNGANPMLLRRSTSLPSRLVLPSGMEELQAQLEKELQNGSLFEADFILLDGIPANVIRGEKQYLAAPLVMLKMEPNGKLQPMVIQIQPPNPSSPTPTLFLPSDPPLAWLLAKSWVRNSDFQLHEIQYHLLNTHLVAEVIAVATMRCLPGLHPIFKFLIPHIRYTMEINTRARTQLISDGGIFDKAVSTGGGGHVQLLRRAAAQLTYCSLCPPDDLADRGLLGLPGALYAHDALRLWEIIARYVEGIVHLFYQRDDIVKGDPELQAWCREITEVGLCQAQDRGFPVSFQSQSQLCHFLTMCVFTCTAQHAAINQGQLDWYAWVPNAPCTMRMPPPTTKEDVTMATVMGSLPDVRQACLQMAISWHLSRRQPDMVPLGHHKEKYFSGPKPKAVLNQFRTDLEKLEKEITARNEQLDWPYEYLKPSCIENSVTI

Question: Which Potency does the source give for `O=C1c2ccccc2-c2onc3c(NCCO)cc(NC4CCCCC4)c1c23` here?
Answer: The Potency was “inactive”.

Question: For `Cc1nc(SCC(=O)Nc2oncc2-c2ccccc2)[nH]c(=O)c1C`, which Potency is on record?
Answer: Its Potency is inconclusive: 17.8 µM [inhibitor, single point].

Question: How did the Potency turn out when `Fc1ccc(CNC(=S)NCc2ccc(F)cc2)cc1` was run?
Answer: The Potency was inconclusive: 79.4 µM [inhibitor, partial curve, poor fit].

Question: For `CCn1c2ccccc2c2cc(CNCCc3c[nH]c4ccccc34)ccc21`, which Potency is on record?
Answer: Its Potency is active: 39.8 µM.

Question: `Cc1ccc(Cc2c(C3CCCCC3)nc3ccc(Cl)cn23)cc1` was tested. Which Potency did it give?
Answer: The Potency was inconclusive: 22.4 µM [inhibitor, partial curve, poor fit].

Question: `COc1ccc(N2CCN(c3csc4ccccc4c3=O)CC2)cc1` was tested. Which Potency did it give?
Answer: The Potency was inconclusive: 158 µM [inhibitor, single point].

Question: `CC1Cc2ccccc2N1C(=O)COC(=O)c1ccc(Cl)c([N+](=O)[O-])c1` (configuration not stated) was tested. Which Potency did it give?
Answer: Its Potency is inconclusive: 25.1 µM [inhibitor, partial curve, poor fit].

Question: Which Potency does the source give for `CCc1ccc(NC(=O)Nc2c(N3CCCC3)c3ccccc3oc2=O)cc1` here?
Answer: The Potency was inconclusive: 112 µM [inhibitor, partial curve, poor fit].

Question: How did the Potency turn out when `O=C1CCCC2=C1C(c1cccc(O)c1)c1c(nc(SCc3ccccc3F)[nH]c1=O)N2` (configuration not stated) was run?
Answer: Its Potency is inconclusive: 35.5 µM [inhibitor, partial curve, poor fit].

Question: For `COc1ccc(C2(C(=O)N3CCC4(CC3)C(OC)CN4c3cccc(F)c3)CC2)cc1` (configuration not stated), which Potency is on record?
Answer: The Potency was inconclusive: 79.4 µM [inhibitor, single point].

Question: With `O=C1[C@@H]2C[C@@H](CN2Cc2ccc3ccccc3n2)Oc2ccccc2N1Cc1ccccc1` as the compound, how does the Potency read?
Answer: The Potency was active: 8.91 µM.

Question: `CCOC(=O)c1ccccc1NC(=O)CCc1nc(-c2ccc(C)cc2)no1` was tested. Which Potency did it give?
Answer: The Potency was “inactive”.

Question: How did the Potency turn out when `COc1ccc(C(NC(=O)CNc2ccccc2C(=O)NC2CC2)C2CC2)cc1` (configuration not stated) was run?
Answer: Its Potency is “inactive”.

Question: `CCn1c(CO)nnc1C1CC(NC(=O)c2oc3cc(OC)ccc3c2C)C1` (configuration not stated) was tested. Which Potency did it give?
Answer: Its Potency is “inactive”.

Question: How did the Potency turn out when `Cc1ccc(S(=O)(=O)NCCNC(C)c2ccc(Br)cc2)cc1` (configuration not stated) was run?
Answer: Its Potency is inconclusive: 79.4 µM [inhibitor, partial curve, poor fit].

Question: `Cc1nc2cc(NC(C(=O)Nc3ccc(F)cc3)c3ccccc3)ccc2o1` (configuration not stated) was tested. Which Potency did it give?
Answer: The Potency was inconclusive: 79.4 µM [inhibitor, single point].

Question: How did the Potency turn out when `O=C(N1CCC(N[S+](=O)([O-])Cc2ccccc2)CC1)N1CC2CC(C1)[C@H]1CCCC(=O)N1C2` (some centres not stated) was run?
Answer: Its Potency is inconclusive: 8.91 µM [inhibitor, full curve].

Question: How did the Potency turn out when `Cc1[nH]c2ccccc2c1C(c1ccc(Br)o1)c1c(C)[nH]c2ccccc12` was run?
Answer: The Potency was inconclusive: 15.8 µM [inhibitor, full curve, poor fit].

Question: How did the Potency turn out when `O=C(CCSc1nc2ccccc2s1)Nc1ccc(F)cc1` was run?
Answer: Its Potency is “inactive”.

Question: `NC(=O)NN=Cc1ccc([N+](=O)[O-])o1` was tested. Which Potency did it give?
Answer: Its Potency is “inactive”.

Question: `CCOc1nc2cccc(C(=O)O)c2n1Cc1ccc(-c2ccccc2-c2nn[nH]n2)cc1` was tested. Which Potency did it give?
Answer: Its Potency is inconclusive: 35.5 µM [inhibitor, partial curve].

Question: `CCc1ccc2c(COC(=O)C3=NN(C)C(=O)CC3)cc(=O)oc2c1` was tested. Which Potency did it give?
Answer: Its Potency is inconclusive: 2.24 µM [inhibitor, full curve, poor fit].

Question: `COc1ccc(-c2nn(-c3ccccc3)cc2/C=N/N2C(=O)CSC2=S)cc1` was tested. Which Potency did it give?
Answer: The Potency was inconclusive: 6.31 µM [inhibitor, full curve].

Question: With `Cc1ccc(NC(=O)CSc2nc3c(cnn3-c3ccc(C)cc3)c(=O)[nH]2)cc1` as the compound, how does the Potency read?
Answer: Its Potency is “inactive”.

Question: Which Potency does the source give for `Cc1ccc(NC(=O)N2CCC(c3noc(COCC4CC4)n3)CC2)cc1F` here?
Answer: Its Potency is inconclusive: 8.91 µM [inhibitor, full curve, poor fit].

Question: `CC(C)(C)c1nc(SCC(=O)N2CCCC2)c2ccccc2n1` was tested. Which Potency did it give?
Answer: The Potency was “inactive”.

Question: For `Cc1ccc(C2=NN(C(=O)CCl)C(c3ccco3)C2)o1` (configuration not stated), which Potency is on record?
Answer: The Potency was inconclusive: 35.5 µM [inhibitor, partial curve, poor fit].

Question: `COc1ccc(CNc2cc(-c3ccccc3C)ncn2)c(OC)c1` was tested. Which Potency did it give?
Answer: Its Potency is inconclusive: 31.6 µM [inhibitor, partial curve, poor fit].

Question: With `COc1ccccc1S(=O)Cc1ccc(C(=O)NCc2ccccc2Cl)o1` (configuration not stated) as the compound, how does the Potency read?
Answer: The Potency was “inactive”.

Question: Which Potency does the source give for `O=C(/C=C/c1ccccc1)C1=C(O)C(=O)N(CCO)C1c1ccccc1[N+](=O)[O-]` (configuration not stated) here?
Answer: The Potency was inconclusive: 12.6 µM [inhibitor, partial curve, poor fit].

Question: How did the Potency turn out when `Oc1cccc(NC(=S)N=Nc2c(O)[nH]c3ccc(Br)cc23)c1` was run?
Answer: Its Potency is inconclusive: 44.7 µM [inhibitor, partial curve].

Question: For `CCN(CC)CC(=O)c1c[nH]c2ccc(C)cc12`, which Potency is on record?
Answer: Its Potency is inconclusive: 20 µM [inhibitor, partial curve, poor fit].

Question: Which Potency does the source give for `Cn1c(=O)c2c(nc(NC3CCCCC3)n2CC(O)CO)n(C)c1=O` (configuration not stated) here?
Answer: Its Potency is “inactive”.

Question: `O=C(CSc1nnnn1-c1ccc(Cl)cc1)NC1CCS(=O)(=O)C1` (configuration not stated) was tested. Which Potency did it give?
Answer: Its Potency is inconclusive: 50.1 µM [inhibitor, partial curve, poor fit].

Question: Which Potency does the source give for `COc1ccc(N=Cc2c(O)c3ccccc3n2C(C)=O)cc1` here?
Answer: Its Potency is “inactive”.

Question: `COc1ccc(C/C(=N\O)c2ccc(OC)cc2)cc1` was tested. Which Potency did it give?
Answer: Its Potency is inconclusive: 15.8 µM [inhibitor, partial curve, poor fit].

Question: How did the Potency turn out when `O=C(O)C(Cc1cccs1)c1ccccc1` (configuration not stated) was run?
Answer: The Potency was inconclusive: 2.51 µM [inhibitor, full curve].

Question: Which Potency does the source give for `CCN(CC)C(=O)C1=C(C)N(CCC2=CCCCC2)C(=O)C(CC(=O)NCCc2ccccn2)C1` (configuration not stated) here?
Answer: The Potency was inconclusive: 28.2 µM [inhibitor, single point].

Question: `COc1cccc(C(=O)Oc2c(Br)cc(Br)cc2/C=N/NC(=O)c2cc(C)[nH]n2)c1` was tested. Which Potency did it give?
Answer: The Potency was “inactive”.

Question: For `Cc1ccccc1NC(=O)C1CC(=O)Nc2nc(SCc3ccccc3)nn21` (configuration not stated), which Potency is on record?
Answer: The Potency was inconclusive: 56.2 µM [inhibitor, partial curve, poor fit].

Question: How did the Potency turn out when `COc1ccc(NC(=O)C(NC(=O)/C=C\c2ccc3c(c2)OCO3)c2ccccc2)cc1` (configuration not stated) was run?
Answer: Its Potency is “inactive”.

Question: For `COC(=O)c1c(NC(=O)COC(=O)[C@@H](NS(=O)(=O)c2ccc(C)cc2)C(C)C)sc2c1CCC2`, which Potency is on record?
Answer: The Potency was “inactive”.

Question: For `COc1ccc(-c2cn(/N=C/c3ccc(Cl)cc3Cl)c(N)n2)cc1`, which Potency is on record?
Answer: Its Potency is “inactive”.

Question: With `COc1cc(/C=C2/SC(=S)N(CC(=O)O)C2=O)ccc1OC(=O)c1ccco1` as the compound, how does the Potency read?
Answer: Its Potency is inconclusive: 44.7 µM [inhibitor, partial curve, poor fit].

Question: With `O=C(O)COCC(=O)N1C[C@@H]2C[C@H](C1)c1c(-c3ccc(OC(F)(F)F)cc3)ccc(=O)n1C2` as the compound, how does the Potency read?
Answer: The Potency was inconclusive: 50.1 µM [inhibitor, partial curve].

Question: Which Potency does the source give for `CC(C)Oc1ccc(NC(=O)Oc2ccccc2)cc1` here?
Answer: Its Potency is “inactive”.

Question: `COc1cccc(-n2c(=O)c3sc4ccccc4c3n(CC(=O)Nc3ccccc3C)c2=O)c1` was tested. Which Potency did it give?
Answer: Its Potency is inconclusive: 158 µM [inhibitor, single point].

Question: With `CN(C)CCCN=Cc1c(-c2ccccc2)[nH]n(-c2nc3ccccc3s2)c1=O` as the compound, how does the Potency read?
Answer: The Potency was inconclusive: 17.8 µM [inhibitor, partial curve].

Question: For `O=C(NCC(c1ccco1)N1CCCC1)c1cccc(S(=O)(=O)Nc2ccc(Br)cc2)c1` (configuration not stated), which Potency is on record?
Answer: The Potency was inconclusive: 22.4 µM [inhibitor, partial curve, poor fit].

Question: With `Cc1cc(C2=NNC(=Nc3ccccc3)SC2)c(C)n1C` as the compound, how does the Potency read?
Answer: Its Potency is active: 14.1 µM.

Question: How did the Potency turn out when `Cc1ccc(-c2ccc(O)c(C)c2)cc1` was run?
Answer: Its Potency is inconclusive: 50.1 µM [inhibitor, partial curve, poor fit].

Question: With `CN(C)CCCNc1ncnc2sc(-c3ccccc3)cc12` as the compound, how does the Potency read?
Answer: The Potency was inconclusive: 6.31 µM [inhibitor, full curve].

Question: For `CC(=O)Nc1ccc(/C=C(/C#N)C(=O)C(C)(C)C)cc1`, which Potency is on record?
Answer: The Potency was “inactive”.

Question: `OC(c1ccccc1)c1nc(-c2ccc(Cl)cc2)cs1` (configuration not stated) was tested. Which Potency did it give?
Answer: Its Potency is inconclusive: 50.1 µM [inhibitor, partial curve, poor fit].

Question: With `COc1ncc2nc(-c3cn(C)c4ccccc34)c(=O)n(C)c2n1` as the compound, how does the Potency read?
Answer: Its Potency is inconclusive: 79.4 µM [inhibitor, partial curve, poor fit].

Question: `COc1cccc(S(=O)(=O)NCc2ccc(C(=O)N3CCN(c4ccccc4OC)CC3)cc2)c1` was tested. Which Potency did it give?
Answer: Its Potency is “inactive”.

Question: With `Cc1nc2ccc(C(=O)NCc3ccccc3)cc2nc1C` as the compound, how does the Potency read?
Answer: The Potency was inconclusive: 50.1 µM [inhibitor, partial curve, poor fit].

Question: Which activity change, negative = inhibition does the source give for `COC(=O)C(Cc1ccc(O)cc1)NC(=O)c1nn(C)c(=O)c2ccccc12` (configuration not stated) here?
Answer: The activity change, negative = inhibition was inconclusive: -31.6% [inhibitor].

Question: `Cc1ccc(C)c(S(=O)(=O)N2CCCC2CNC(=O)C(=O)NCc2ccccn2)c1` (configuration not stated) was tested. Which Potency did it give?
Answer: The Potency was “inactive”.

Question: How did the Potency turn out when `C/C(=N\Nc1ccc(Cl)c(Cl)c1)c1ccc(-n2ccnc2)cc1` was run?
Answer: The Potency was inconclusive: 4.47 µM [inhibitor, full curve, poor fit].

Question: Which Potency does the source give for `Cc1ccc(C(C)C)cc1OCC(=O)NC1CCCCCCC1` here?
Answer: Its Potency is “inactive”.

Question: Which Potency does the source give for `CCOC(=O)CN1C(=O)N[C@@H](c2cccc(C(F)(F)F)c2)[C@@H](C(=O)OC)[C@H]1C` here?
Answer: The Potency was inconclusive: 126 µM [inhibitor, single point].

Question: With `Cc1ccc(OCC(=O)Nc2cccc(-c3nc4cc(C)ccc4o3)c2)cc1` as the compound, how does the Potency read?
Answer: Its Potency is inconclusive: 126 µM [inhibitor, single point].

Question: With `CN(Cc1ccccc1)C(=O)C[C@@H]1CCNC[C@@H]1Cc1cc(COc2ccccc2)on1` as the compound, how does the Potency read?
Answer: Its Potency is “inactive”.

Question: Which Potency does the source give for `Cn1nc(C(F)(F)F)c2cc(C(=O)N3CCOCC3)sc21` here?
Answer: Its Potency is inconclusive: 0.0891 µM [inhibitor, full curve, poor fit].

Question: Which Potency does the source give for `COc1ccc(C(=O)CC2OC(=O)c3ccccc32)cc1OC` (configuration not stated) here?
Answer: The Potency was “inactive”.

Question: For `CCc1nn(CCCC(=O)NC(C)c2ccccc2)c(=O)c2cc3occc3n12` (configuration not stated), which Potency is on record?
Answer: The Potency was inconclusive: 0.447 µM [inhibitor, full curve, poor fit].
